Counter-ions that a name gives are not always drawn. The list shows a part of the results. Hit calls seldom repeat between salt and free forms of one compound.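 In K562 cells expressing nanoluciferase-fused kinases, luminescence was recorded at 4 h intervals between 2 and 18 h, normalized as percent of control with DMSO at 100% and a positive control at 0%. A significant (2 sigma) signal drop marks a time point as decreased. The authors' rule for a hit is not shown and takes in more than the number of time points.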
Legend:
Test in all cases: kinase-Nluc reporter destabilization hit call (1 = scored as downregulated) (binary); higher = compound decreases kinase abundance
Conditions in all cases: K562; 2-18 h
[1] = system: BRAF_V600E
[2] = molecular target: BTK (UniProt Q06187)
[3] = molecular target: CAMK2A (UniProt Q9UQM7)
[4] = molecular target: CAMK2G (UniProt Q13555)
[5] = molecular target: CDK10 (UniProt Q15131)
[6] = molecular target: CDK2 (UniProt P24941)
[7] = molecular target: CDK3 (UniProt Q00526)
[8] = molecular target: CDK4 (UniProt P11802)
[9] = molecular target: CDK5 (UniProt Q00535)
[10] = molecular target: CDK6 (UniProt Q00534)
[11] = molecular target: CDK7 (UniProt P50613)
[12] = molecular target: CDK9 (UniProt P50750)
[13] = molecular target: CHEK2 (UniProt O96017)
[14] = molecular target: CSF1R (UniProt P07333)
[15] = molecular target: CSK (UniProt P41240)
[16] = molecular target: CSNK1A1 (UniProt P48729)
[17] = molecular target: CSNK1D (UniProt P48730)
[18] = molecular target: DDR1 (UniProt Q08345)
[19] = molecular target: DYRK1B (UniProt Q9Y463)
[20] = molecular target: DYRK2 (UniProt Q92630)

Amino acid sequences for entries named in this document (tags omitted). A change or cut given only in a name is not applied to a line headed by its entry.
UniProt Q06187: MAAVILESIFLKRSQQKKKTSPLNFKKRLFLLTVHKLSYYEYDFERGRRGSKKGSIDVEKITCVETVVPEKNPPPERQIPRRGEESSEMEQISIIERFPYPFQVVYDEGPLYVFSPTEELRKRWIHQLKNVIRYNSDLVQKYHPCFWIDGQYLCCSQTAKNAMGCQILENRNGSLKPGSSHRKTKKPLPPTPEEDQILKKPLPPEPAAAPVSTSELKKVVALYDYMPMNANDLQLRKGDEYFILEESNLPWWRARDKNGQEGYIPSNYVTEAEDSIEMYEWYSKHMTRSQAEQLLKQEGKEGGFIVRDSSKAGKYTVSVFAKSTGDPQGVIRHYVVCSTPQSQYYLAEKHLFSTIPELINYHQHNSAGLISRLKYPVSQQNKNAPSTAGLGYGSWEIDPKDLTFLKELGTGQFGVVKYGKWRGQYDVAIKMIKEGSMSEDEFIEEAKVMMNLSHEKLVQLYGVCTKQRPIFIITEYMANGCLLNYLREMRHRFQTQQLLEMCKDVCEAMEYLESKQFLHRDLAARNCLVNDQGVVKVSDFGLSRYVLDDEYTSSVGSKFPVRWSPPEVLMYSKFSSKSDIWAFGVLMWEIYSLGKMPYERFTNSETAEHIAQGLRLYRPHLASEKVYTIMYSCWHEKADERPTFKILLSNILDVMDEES
UniProt Q9UQM7, whole entry: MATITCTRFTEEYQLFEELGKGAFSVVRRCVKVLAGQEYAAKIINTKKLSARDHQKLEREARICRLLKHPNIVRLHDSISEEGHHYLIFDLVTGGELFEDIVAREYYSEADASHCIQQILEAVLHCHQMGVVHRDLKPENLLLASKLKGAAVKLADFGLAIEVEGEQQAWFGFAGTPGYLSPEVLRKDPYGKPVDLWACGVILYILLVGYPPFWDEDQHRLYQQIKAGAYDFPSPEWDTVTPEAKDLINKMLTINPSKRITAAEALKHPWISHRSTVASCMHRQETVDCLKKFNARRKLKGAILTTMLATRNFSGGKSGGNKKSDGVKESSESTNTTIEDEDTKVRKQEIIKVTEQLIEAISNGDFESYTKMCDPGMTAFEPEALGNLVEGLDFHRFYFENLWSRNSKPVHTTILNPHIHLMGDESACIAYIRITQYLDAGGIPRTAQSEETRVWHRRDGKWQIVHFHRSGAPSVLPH
UniProt Q13555: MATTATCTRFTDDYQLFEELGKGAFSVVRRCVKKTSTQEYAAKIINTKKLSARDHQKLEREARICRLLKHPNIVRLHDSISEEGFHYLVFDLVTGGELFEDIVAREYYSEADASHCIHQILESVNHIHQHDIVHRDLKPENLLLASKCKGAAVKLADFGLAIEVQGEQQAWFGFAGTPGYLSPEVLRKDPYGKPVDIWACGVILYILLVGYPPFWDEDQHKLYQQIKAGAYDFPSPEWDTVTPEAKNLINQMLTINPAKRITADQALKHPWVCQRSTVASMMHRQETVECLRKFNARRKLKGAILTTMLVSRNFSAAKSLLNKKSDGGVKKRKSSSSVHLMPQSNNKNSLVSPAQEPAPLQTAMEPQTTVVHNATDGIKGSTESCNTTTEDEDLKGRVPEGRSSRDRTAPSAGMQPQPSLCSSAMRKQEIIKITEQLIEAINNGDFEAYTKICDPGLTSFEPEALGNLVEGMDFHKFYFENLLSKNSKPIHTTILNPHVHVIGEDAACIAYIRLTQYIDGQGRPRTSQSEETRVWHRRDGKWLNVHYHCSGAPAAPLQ
UniProt Q15131: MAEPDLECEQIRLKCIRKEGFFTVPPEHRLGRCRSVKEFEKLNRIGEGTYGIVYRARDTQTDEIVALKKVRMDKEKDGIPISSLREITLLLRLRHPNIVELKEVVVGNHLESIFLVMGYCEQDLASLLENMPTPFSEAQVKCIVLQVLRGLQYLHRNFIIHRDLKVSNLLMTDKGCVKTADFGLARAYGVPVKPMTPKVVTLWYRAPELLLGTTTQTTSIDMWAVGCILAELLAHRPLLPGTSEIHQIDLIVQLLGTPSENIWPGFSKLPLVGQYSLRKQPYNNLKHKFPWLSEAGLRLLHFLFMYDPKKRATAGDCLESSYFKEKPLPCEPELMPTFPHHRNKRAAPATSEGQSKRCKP
UniProt P11802: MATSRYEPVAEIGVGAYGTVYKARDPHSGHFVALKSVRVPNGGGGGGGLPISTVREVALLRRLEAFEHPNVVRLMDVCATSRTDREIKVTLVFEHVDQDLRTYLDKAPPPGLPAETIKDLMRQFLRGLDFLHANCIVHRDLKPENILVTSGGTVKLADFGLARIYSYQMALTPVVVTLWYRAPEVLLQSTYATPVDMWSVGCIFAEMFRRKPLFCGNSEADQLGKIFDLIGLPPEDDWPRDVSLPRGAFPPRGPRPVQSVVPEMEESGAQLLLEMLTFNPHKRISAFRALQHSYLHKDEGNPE
UniProt Q00535, whole entry, looked up: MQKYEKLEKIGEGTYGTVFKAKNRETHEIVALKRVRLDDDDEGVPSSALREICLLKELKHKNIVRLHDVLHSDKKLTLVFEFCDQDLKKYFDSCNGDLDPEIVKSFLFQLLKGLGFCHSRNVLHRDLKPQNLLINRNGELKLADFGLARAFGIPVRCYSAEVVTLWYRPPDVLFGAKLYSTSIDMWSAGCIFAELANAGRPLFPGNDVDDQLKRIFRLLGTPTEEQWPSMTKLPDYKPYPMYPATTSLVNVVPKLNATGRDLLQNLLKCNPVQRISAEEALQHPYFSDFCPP
UniProt Q00534, whole entry: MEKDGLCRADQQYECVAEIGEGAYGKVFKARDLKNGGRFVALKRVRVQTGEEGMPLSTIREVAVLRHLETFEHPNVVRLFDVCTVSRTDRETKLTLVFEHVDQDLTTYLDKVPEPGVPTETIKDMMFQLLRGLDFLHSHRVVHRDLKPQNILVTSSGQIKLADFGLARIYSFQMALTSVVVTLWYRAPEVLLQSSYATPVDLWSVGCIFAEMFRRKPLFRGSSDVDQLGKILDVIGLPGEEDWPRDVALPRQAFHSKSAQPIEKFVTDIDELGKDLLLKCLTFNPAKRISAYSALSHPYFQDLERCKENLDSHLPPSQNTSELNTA
UniProt O96017, whole entry: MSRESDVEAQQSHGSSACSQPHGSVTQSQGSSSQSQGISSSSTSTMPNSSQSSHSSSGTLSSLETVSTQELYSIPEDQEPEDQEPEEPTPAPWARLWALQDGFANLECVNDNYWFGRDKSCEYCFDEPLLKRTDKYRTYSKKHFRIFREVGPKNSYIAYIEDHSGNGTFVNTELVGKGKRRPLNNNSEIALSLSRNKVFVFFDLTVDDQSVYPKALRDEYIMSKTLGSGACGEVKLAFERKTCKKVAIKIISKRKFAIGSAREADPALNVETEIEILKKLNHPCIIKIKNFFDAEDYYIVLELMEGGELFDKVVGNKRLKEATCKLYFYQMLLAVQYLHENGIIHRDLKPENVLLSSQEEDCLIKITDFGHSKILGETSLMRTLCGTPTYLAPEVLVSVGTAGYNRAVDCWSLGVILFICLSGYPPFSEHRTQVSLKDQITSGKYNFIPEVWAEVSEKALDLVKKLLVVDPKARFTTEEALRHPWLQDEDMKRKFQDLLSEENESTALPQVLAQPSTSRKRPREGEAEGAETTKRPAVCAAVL
UniProt P07333, whole entry: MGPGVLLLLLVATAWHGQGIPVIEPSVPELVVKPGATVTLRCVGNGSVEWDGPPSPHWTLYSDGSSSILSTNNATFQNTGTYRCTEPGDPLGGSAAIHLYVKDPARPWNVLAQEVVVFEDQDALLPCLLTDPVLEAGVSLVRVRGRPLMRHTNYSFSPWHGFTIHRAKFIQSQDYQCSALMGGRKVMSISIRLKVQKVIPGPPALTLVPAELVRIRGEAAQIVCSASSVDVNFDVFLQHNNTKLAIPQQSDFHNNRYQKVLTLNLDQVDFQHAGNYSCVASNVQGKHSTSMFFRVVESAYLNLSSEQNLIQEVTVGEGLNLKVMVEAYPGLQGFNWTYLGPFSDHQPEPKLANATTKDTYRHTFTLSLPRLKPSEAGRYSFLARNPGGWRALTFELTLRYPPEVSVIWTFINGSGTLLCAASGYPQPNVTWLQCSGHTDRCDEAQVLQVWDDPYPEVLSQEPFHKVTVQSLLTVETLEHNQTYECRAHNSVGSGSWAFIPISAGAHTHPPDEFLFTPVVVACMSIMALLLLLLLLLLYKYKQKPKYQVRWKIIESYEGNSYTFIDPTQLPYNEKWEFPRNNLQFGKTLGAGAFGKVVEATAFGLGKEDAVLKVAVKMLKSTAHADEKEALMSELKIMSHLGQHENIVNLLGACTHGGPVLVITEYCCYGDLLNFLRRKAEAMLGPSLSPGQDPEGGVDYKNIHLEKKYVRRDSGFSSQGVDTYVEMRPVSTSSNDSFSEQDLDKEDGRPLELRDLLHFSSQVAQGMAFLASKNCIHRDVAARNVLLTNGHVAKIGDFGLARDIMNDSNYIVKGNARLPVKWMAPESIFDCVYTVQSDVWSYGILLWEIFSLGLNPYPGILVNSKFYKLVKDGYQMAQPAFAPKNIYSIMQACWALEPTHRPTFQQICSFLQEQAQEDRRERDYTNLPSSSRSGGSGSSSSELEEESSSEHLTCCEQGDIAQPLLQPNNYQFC
UniProt P41240: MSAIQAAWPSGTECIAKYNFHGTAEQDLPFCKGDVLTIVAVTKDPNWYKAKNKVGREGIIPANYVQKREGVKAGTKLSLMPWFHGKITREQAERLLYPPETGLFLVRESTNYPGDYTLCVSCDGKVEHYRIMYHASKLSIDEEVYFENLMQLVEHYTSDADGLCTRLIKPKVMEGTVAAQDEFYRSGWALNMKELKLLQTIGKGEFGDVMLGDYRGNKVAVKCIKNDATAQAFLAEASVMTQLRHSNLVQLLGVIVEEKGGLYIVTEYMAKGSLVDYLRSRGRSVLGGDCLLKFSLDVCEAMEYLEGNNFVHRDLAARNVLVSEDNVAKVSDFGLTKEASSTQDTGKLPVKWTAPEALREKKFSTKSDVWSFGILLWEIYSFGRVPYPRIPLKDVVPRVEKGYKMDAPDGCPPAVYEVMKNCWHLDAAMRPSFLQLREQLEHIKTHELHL
UniProt P48729: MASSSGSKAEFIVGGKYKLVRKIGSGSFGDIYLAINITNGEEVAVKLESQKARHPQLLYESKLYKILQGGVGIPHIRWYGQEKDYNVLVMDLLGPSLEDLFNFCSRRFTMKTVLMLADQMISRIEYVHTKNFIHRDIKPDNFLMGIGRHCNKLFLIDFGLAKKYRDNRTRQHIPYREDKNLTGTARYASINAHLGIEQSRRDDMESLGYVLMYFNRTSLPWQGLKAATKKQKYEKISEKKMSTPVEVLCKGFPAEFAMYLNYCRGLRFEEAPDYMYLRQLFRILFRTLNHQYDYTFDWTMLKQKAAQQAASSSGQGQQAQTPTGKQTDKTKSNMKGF
UniProt P48730: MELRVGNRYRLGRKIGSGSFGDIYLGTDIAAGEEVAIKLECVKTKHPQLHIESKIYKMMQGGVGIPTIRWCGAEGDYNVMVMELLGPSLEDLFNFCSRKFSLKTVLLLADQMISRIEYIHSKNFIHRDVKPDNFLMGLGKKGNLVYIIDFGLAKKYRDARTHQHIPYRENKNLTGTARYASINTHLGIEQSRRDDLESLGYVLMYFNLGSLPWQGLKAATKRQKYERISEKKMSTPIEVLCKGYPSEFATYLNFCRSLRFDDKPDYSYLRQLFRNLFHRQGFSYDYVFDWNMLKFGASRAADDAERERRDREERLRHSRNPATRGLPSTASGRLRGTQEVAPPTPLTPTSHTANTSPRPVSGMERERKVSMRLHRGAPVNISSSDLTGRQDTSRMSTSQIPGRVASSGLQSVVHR
UniProt Q9Y463, whole entry, looked up: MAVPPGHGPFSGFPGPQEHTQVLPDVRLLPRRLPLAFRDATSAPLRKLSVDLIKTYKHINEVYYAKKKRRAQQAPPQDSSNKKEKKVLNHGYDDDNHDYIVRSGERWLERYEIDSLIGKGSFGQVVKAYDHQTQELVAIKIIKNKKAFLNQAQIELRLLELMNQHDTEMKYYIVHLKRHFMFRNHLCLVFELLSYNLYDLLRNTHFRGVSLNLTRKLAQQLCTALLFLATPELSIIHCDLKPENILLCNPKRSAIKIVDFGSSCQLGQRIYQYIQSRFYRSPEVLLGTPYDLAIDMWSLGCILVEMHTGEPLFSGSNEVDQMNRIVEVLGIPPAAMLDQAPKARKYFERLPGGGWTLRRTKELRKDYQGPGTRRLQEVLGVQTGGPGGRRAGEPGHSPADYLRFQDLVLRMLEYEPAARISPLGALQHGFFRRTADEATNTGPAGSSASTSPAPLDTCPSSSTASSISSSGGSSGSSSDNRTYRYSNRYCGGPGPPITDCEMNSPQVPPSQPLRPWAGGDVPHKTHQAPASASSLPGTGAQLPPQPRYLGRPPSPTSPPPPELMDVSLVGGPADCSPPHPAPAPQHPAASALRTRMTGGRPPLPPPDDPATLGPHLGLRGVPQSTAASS

Structure (SMILES) | kinase-Nluc reporter destabilization hit call [1] | kinase-Nluc reporter destabilization hit call [2] | kinase-Nluc reporter destabilization hit call [3] | kinase-Nluc reporter destabilization hit call [4] | kinase-Nluc reporter destabilization hit call [5] | kinase-Nluc reporter destabilization hit call [6] | kinase-Nluc reporter destabilization hit call [7] | kinase-Nluc reporter destabilization hit call [8] | kinase-Nluc reporter destabilization hit call [9] | kinase-Nluc reporter destabilization hit call [10] | kinase-Nluc reporter destabilization hit call [11] | kinase-Nluc reporter destabilization hit call [12] | kinase-Nluc reporter destabilization hit call [13] | kinase-Nluc reporter destabilization hit call [14] | kinase-Nluc reporter destabilization hit call [15] | kinase-Nluc reporter destabilization hit call [16] | kinase-Nluc reporter destabilization hit call [17] | kinase-Nluc reporter destabilization hit call [18] | kinase-Nluc reporter destabilization hit call [19] | kinase-Nluc reporter destabilization hit call [20]
Cc1ccc(Oc2nc3cc(-c4ccc(-c5ccccc5)cc4)c(Cl)cc3[nH]2)cc1C(=O)O (10 µM) | inactive: 0 | inactive: 0 | inactive: 0 | inactive: 0 | inactive: 0 | inactive: 0 | inactive: 0 | inactive: 0 | inactive: 0 | inactive: 0 | inactive: 0 | inactive: 0 | inactive: 0 | inactive: 0 | inactive: 0 | inactive: 0 | inactive: 0 | inactive: 0 | inactive: 0 | inactive: 0
CC(C)CNc1ccnc(NCc2csc(-c3ccccc3)n2)n1 [KHS101 hydrochloride] (2.5 µM) | inactive: 0 | inactive: 0 | inactive: 0 | inactive: 0 | inactive: 0 | inactive: 0 | inactive: 0 | inactive: 0 | inactive: 0 | inactive: 0 | inactive: 0 | inactive: 0 | inactive: 0 | inactive: 0 | inactive: 0 | inactive: 0 | inactive: 0 | inactive: 0 | inactive: 0 | inactive: 0
CN1CC[C@@H](c2c(O)cc(O)c3c(=O)cc(-c4ccc(C(F)(F)F)cc4Cl)oc23)[C@@H]1CO [Voruciclib (hydrochloride)] (10 µM) | inactive: 0 | inactive: 0 | inactive: 0 | inactive: 0 | inactive: 0 | inactive: 0 | inactive: 0 | inactive: 0 | inactive: 0 | inactive: 0 | inactive: 0 | inactive: 0 | inactive: 0 | inactive: 0 | inactive: 0 | inactive: 0 | inactive: 0 | inactive: 0 | inactive: 0 | inactive: 0
Nc1ncnc2c1c(-c1ccc(Oc3ccccc3)cc1)nn2C1CCN(CCOCCOCCOc2ccc3c(c2)CN(C2CCC(=O)NC2=O)C3=O)CC1 (stereo not given) (2.5 µM) | inactive: 0 | inactive: 0 | inactive: 0 | inactive: 0 | inactive: 0 | inactive: 0 | inactive: 0 | inactive: 0 | inactive: 0 | inactive: 0 | inactive: 0 | inactive: 0 | inactive: 0 | inactive: 0 | inactive: 0 | inactive: 0 | inactive: 0 | inactive: 0 | inactive: 0 | inactive: 0
Cc1ccc(NC(=O)c2ccc(CN(CCN(C)C)C(=O)c3cccnc3)cc2)cc1Nc1nccc(-c2cccnc2)n1 [PDGFRα kinase inhibitor 1] (10 µM) | inactive: 0 | inactive: 0 | inactive: 0 | inactive: 0 | inactive: 0 | inactive: 0 | inactive: 0 | inactive: 0 | inactive: 0 | inactive: 0 | inactive: 0 | inactive: 0 | inactive: 0 | inactive: 0 | inactive: 0 | inactive: 0 | inactive: 0 | inactive: 0 | inactive: 0 | inactive: 0
O=C(CNc1cccc(Cl)c1)NC1CCCN(c2ncnc3[nH]ccc23)C1 (stereo not given) (10 µM) | inactive: 0 | inactive: 0 | inactive: 0 | inactive: 0 | inactive: 0 | inactive: 0 | inactive: 0 | inactive: 0 | inactive: 0 | inactive: 0 | inactive: 0 | inactive: 0 | inactive: 0 | inactive: 0 | inactive: 0 | inactive: 0 | inactive: 0 | inactive: 0 | inactive: 0 | inactive: 0
Nc1nccc(Oc2ccc(NC(=O)c3c[nH]cc(-c4ccc(F)cc4)c3=O)cc2F)c1Cl (10 µM) | inactive: 0 | inactive: 0 | inactive: 0 | inactive: 0 | inactive: 0 | inactive: 0 | inactive: 0 | inactive: 0 | inactive: 0 | inactive: 0 | active: 1 | inactive: 0 | inactive: 0 | active: 1 | inactive: 0 | inactive: 0 | inactive: 0 | inactive: 0 | inactive: 0 | inactive: 0
CC(C)c1cc(/C=C(\C#N)C(=O)NCCCc2ccccc2)cc(C(C)C)c1O (10 µM) | inactive: 0 | inactive: 0 | inactive: 0 | inactive: 0 | inactive: 0 | inactive: 0 | inactive: 0 | inactive: 0 | inactive: 0 | inactive: 0 | inactive: 0 | inactive: 0 | inactive: 0 | inactive: 0 | inactive: 0 | inactive: 0 | inactive: 0 | inactive: 0 | inactive: 0 | inactive: 0
Oc1cc(O)c2c(c1)OC1(c3ccc(O)c(O)c3)Oc3cc(O)c4c(c3C2C1O)OC(c1ccc(O)c(O)c1)C(O)C4 (stereo not given) [Procyanidin A1] (10 µM) | inactive: 0 | inactive: 0 | inactive: 0 | inactive: 0 | inactive: 0 | inactive: 0 | inactive: 0 | inactive: 0 | inactive: 0 | inactive: 0 | inactive: 0 | inactive: 0 | inactive: 0 | inactive: 0 | inactive: 0 | inactive: 0 | inactive: 0 | inactive: 0 | inactive: 0 | inactive: 0
